Measured data: PubChem BioAssay AID686943 (Drosophila RNAi Screening Center, 2013)
In all, the deposit lists about 23,000 reagents; shown is a random part of those with a known target gene and a result. 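Extra replicates exist only for a retested subset of genes; insulin dose and duration not given; both raised and lowered dpERK matter.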 Not all columns of the deposit are shown. The record does not give: the amount of reagent, the time to read-out.

- Test: 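Search across the genome for regulators of signalling from receptor tyrosine kinase to ERK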 (primary screen)
- Cell system: Drosophila S2R+ haemocyte-like cells expressing YFP-tagged ERK (Rolled)
- Knock-down reagent: long dsRNA against Drosophila genes
- Conditions: insulin stimulation versus unstimulated cells; dose and duration not given
- Read-out: 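Per-plate z-scores of phospho-ERK immunostaining normalised to YFP-tagged ERK, measured with and without insulin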
- Reading the numbers: replicate 1, z-score of dpERK with insulin: higher = more active ERK per ERK-YFP after insulin

replicate 1, z-score of dpERK with insulin, by gene and reagent
Ufsp1: DRSC04958 0.53
Non1: DRSC05954 -0.17
Traf-like: DRSC19894 0.8
CG43163: DRSC10748 0.12
Sec3: DRSC10384 -0.02
poe: DRSC03593 -1.68
CG10073: DRSC05961 -0.07
mRpL16: DRSC18550 0.57
kni: DRSC11891 -0.24
RpLP2: DRSC07539 -2.45
pygo: DRSC14322 -0.18
CG13675: DRSC08908 -0.29; DRSC10034 -5.84
Mal-A6: DRSC07233 0.39
Uros2: DRSC16505 0.28
BigH1: DRSC15491 -0.2
CG33453: DRSC05782 -0.3
CG11454: DRSC00310 0.03
lncRNA:roX2: DRSC22237 0.03
Spt7: DRSC19997 0.05
RNASEK: DRSC21641 -1.79
CG8388: DRSC07157 -0.31
CG9109: DRSC03139 -0.43
CG15024: DRSC08478 0.5
bun: DRSC01253 0.27; DRSC01255 1.43; DRSC03500 -0.03
ICA69: DRSC11621 -0.21
Bet1: DRSC10088 -2.54
GNBP1: DRSC11169 0.51; DRSC21836 0.14
CG31220: DRSC22248 0.31
CG9003: DRSC07317 0.36
CG9525: DRSC03249 0.95
Tmf: DRSC18368 0.53
Fpps: DRSC07429 0.01
tej: DRSC07219 0.36
Ldsdh1: DRSC18219 0.3
Ccp84Ae: DRSC12590 0.13

Part of the list above, set out differently:
CG31220 [DRSC22248]
- replicate 1, z-score of dpERK with insulin: 0.31

CG9003 [DRSC07317]
- replicate 1, z-score of dpERK with insulin: 0.36

CG9525 [DRSC03249]
- replicate 1, z-score of dpERK with insulin: 0.95
